Square brackets hold non-standard residues; d marks the D form. * marks the point of attachment. Phe(4-Cl) = N[C@@H](Cc1ccc(Cl)cc1)C(=O)O; Phe(4-F) = N[C@@H](Cc1ccc(F)cc1)C(=O)O; 2Nal = N[C@@H](Cc1ccc2ccccc2c1)C(=O)O; Fmoc = O=C(OCC1c2ccccc2-c2ccccc21)*; Mtr = COc1cc(C)c(S(=O)(=O)*)c(C)c1C; Phg = N[C@H](C(=O)O)c1ccccc1; Tos = Cc1ccc(S(=O)(=O)*)cc1; BrZ = O=C(OCc1ccccc1Br)*; OPac = O=C(CO*)c1ccccc1; Boc = CC(C)(C)OC(=O)*
Columns and labels:
[1] = solution-phase peptide synthesis; DCC/HONB (ONB active esters); details: coupling step
peptide synthesis = details: whole synthesis, scale 0.25 mmol
[2] = general procedure: solution-phase peptide synthesis; DCC/HONB (ONB active esters); details: for cyclisation yield: cyclisation step; for step yield: late stage modification step
[3] = Boc solid-phase peptide synthesis; DCC/HONB (ONB active esters); details: whole synthesis

For “Boc-D-Arg(Tos)-Lys(SO2 Nap(1))-D-Tyr(Br-Z)-Trp-Leu-OPac”, the step yield [1] was 74.0%.

Substance Boc-PY(BrZ)[dW]LR(Tos)-OPac has a step yield [1] of 85.9%.

For Boc-WPY(BrZ)[dW]LR(Tos)-OPac, the step yield [1] was 82.8%.

Work on Fmoc-[dA]WF[dR](Mtr)F-OH yielded a crude mass (peptide synthesis) of 96 mg and a crude yield ([2]; whole synthesis) of 82.8%.

cyclo(F[dR](Tos)F[dW]W) gave a cyclisation yield [2] of 83.0%.

cyclo(F[dR](Tos)[Phe(4-Cl)][dA]W) showed a cyclisation yield [2] of 50.5%.

In the case of cyclo(F[dR](Tos)[Phe(4-F)][dA]W), the cyclisation yield [2] is reported as 65.6%.

In the case of cyclo(F[dR][2Nal][dA]W), the step yield [2] is reported as 39.0%.

Substance cyclo(R[dK](Ac)Y[dW]L) has a cyclisation yield [2] of 23.9%.

Work on cyclo(R[dK]Y[dW]L) yielded a cyclisation yield [2] of 11.7%.

Substance cyclo(R[dW]Y[dW]L) has a cyclisation yield [2] of 11.5%.

With cyclo(Y[dW]LRWP) the cyclisation yield [2] was 15.3%.

In the case of cyclo([Phe(4-Cl)]R(Tos)[2Nal][dA]W), the crude yield [3] is reported as 59.1%.

With cyclo([Phe(4-Cl)]R[2Nal][dA]W) the step yield [2] was 37%.

cyclo([Phe(4-Cl)][dR](Tos)F[dA]W) gave a cyclisation yield [2] of 7.5%.

Substance cyclo([Phe(4-Cl)][dR](Tos)[2Nal][dA]W) has a crude yield [3] of 92.8%.

With cyclo([Phe(4-Cl)][dR]F[dA]W) the step yield [2] was 21.5%.

For cyclo([Phe(4-Cl)][dR][2Nal][dA]W), the step yield [2] was 39%.

cyclo([Phe(4-F)][dR](Tos)F[dA]W) gave a cyclisation yield [2] of 58.8%.

Work on cyclo([Phg][dR](Tos)F[dS]W) yielded a cyclisation yield [2] of 15.7%.

From patent publication US6136781A (Takeda Chemical Industries, Ltd., priority 1995, dated 2000)
